Source: article PMC4161380

By UniProt entry, the sequences of proteins in these tests, tags left out.
UniProt Q15165: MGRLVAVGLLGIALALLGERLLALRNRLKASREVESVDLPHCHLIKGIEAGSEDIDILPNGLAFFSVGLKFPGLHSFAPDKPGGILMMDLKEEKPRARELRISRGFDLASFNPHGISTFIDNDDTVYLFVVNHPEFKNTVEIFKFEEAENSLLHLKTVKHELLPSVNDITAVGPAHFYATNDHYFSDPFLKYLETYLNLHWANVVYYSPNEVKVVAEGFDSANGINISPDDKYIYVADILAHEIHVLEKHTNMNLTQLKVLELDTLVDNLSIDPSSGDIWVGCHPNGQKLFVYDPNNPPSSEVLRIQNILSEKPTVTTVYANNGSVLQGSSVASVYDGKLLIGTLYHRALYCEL
UniProt Q99497: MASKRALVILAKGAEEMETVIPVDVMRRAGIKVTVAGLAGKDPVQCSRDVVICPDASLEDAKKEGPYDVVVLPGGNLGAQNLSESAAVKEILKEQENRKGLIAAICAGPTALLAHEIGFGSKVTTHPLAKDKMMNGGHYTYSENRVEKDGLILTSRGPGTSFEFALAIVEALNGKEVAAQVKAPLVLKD

Target: FLAG-tagged Paraoxonase-2 (bait of the proteomic screen) (human) (UniProt Q15165)
Assay: affinity purification with mass spectrometry; FLAG-tagged bait transiently expressed in HEK293; lysate (20 mM Tris-HCl pH 7.5, 150 mM NaCl, 1 mM EDTA, 1% NP-40, 0.5% sodium deoxycholate) on anti-Flag M2-agarose, eluted with Flag peptide, SDS-PAGE bands analysed by LCQ Deca mass spectrometry and Mascot

binding: binds
Substance: DJ-1 (endogenous, HEK293) (from UniProt Q99497 1-189)

No constants are given. Whether binding was seen depends on the method and setting. In cells and extracts the contact can be indirect. Here binding means that the protein was enriched with, or labelled near, the bait; the list need not be complete.
